Experimental data as given in PubChem BioAssay AID1347426 (Functional Genomics Laboratory (NCATS/FGL), 2020).
Screen size: about 31,000 sequences; about 1,400 (4.5%) were called active.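 The calls were made as follows: active = median seed-adjusted z-score above 1 or below -1; inactive = the rest.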 Some of the results follow.

Assay: Novel Modifiers of Survival Motor Neuron (SMN) Protein: Gene Identification via Genome-wide siRNA Screen;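 also: luminescence tracks full-length SMN protein made from the SMN2 reporter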
Details: HEK293T SMN2-luciferase reporter, siRNA knockdown, 72 h; actives lie on both sides
Summary of the method: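 Each of three siRNAs per gene is reverse-transfected (1 pmol) into reporter HEK293T cells whose luciferase output tracks SMN protein level. After 72 h culture, ONE-Glo luminescence is control-normalized, log10-transformed and MAD-standardized; Common Seed Analysis deprioritizes seed-driven hits.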
For CAAAGUCCAUGGAGUCUUUTT against RASA4, the median seed-adjusted z-score was active: -1.11. For GCAAUUACAGGCUAGUGAATT against AKAP9, the median seed-adjusted z-score was active: -1.22. For GGGUUUAUAUCGAACGCAATT against RNF144B, the median seed-adjusted z-score was inactive: 0.642. In the case of GAAUAUGGGUCAGUACAUATT against SLC26A7, the median seed-adjusted z-score is reported as inactive: 0.561. With GGACUGUGCGGAGCAUGUATT against NOTCH1 the median seed-adjusted z-score was inactive: 0.116. For AGGAUGAAUUGGCUCGGGATT against RAB40A, the median seed-adjusted z-score was inactive: 0. In the case of GCAUGGUCCGGAAGGCAAATT against STK19, the median seed-adjusted z-score is reported as inactive: -0.188. In the case of CGGACGAAGAGAUUGGGAATT against DRAP1, the median seed-adjusted z-score is reported as active: 1.08. With GCGUUUGACUGGAUUCGCATT against MMP21 the median seed-adjusted z-score was inactive: -0.185. With CGAAAGCUGUUGUUACUCATT against SRR the median seed-adjusted z-score was inactive: -0.256. With CAAUAUAUCGGGUGCAAGATT against PTH2R the median seed-adjusted z-score was inactive: -0.492. With GAGCGUGCAAUAGAAGAAATT against PPRC1 the median seed-adjusted z-score was inactive: 0. In the case of CAGGUAGUGUAAGCCCUCATT against MZF1, the median seed-adjusted z-score is reported as inactive: 0.215. With GCCUUUGCAGGUAUCAGAATT against LYPLA1 the median seed-adjusted z-score was inactive: 0. In the case of UGAGGACAAGGAUUUGGAATT against EIF2S2, the median seed-adjusted z-score is reported as inactive: 0.576. For ACAUGUAUGCUGUAAAUCUTT against CSAD, the median seed-adjusted z-score was inactive: -0.0681. For GAGUCGUUGUCCAUCUUAATT against SR140, the median seed-adjusted z-score was active: 1.16. With GAAACCAUACAAACCUAAATT against ZNF273 the median seed-adjusted z-score was inactive: 0.0489. In the case of AAACCAUCAUGCUGAGGUGTT against FCGR2A, the median seed-adjusted z-score is reported as inactive: -0.19. For CACUGUGACUGCAUUGAAATT against TGIF1, the median seed-adjusted z-score was inactive: 0.303. For GGCUUUGUCAGUUCCCAGATT against SPRR2B, the median seed-adjusted z-score was inactive: 0.388. In the case of GCCUGAAGUUUUUAAGGAATT against SPOP, the median seed-adjusted z-score is reported as inactive: 0.000304. With CAAUGUGGAGUGUCAGAAATT against SMYD2 the median seed-adjusted z-score was inactive: -0.393. With CAAUAGACAUUUUAGUCUATT against POT1 the median seed-adjusted z-score was inactive: 0.459. In the case of GGUGUGCCGAUGCAACAGATT against LHX4, the median seed-adjusted z-score is reported as inactive: 0.0795. With GUCUUUAAUCGGAAGCGAATT against ZNF813 the median seed-adjusted z-score was inactive: 0.127. For CAAGCAGGAUGACAAGUUUTT against SLC22A14, the median seed-adjusted z-score was inactive: 0.215. For GAUUCGUGAGAAUGACUUUTT against ERCC2, the median seed-adjusted z-score was inactive: -0.0551. For GGGAACAAAUGUGAUCUGATT against RAB1A, the median seed-adjusted z-score was inactive: 0.395. For GUACUUCCGGGACCAUAUATT against IQGAP1, the median seed-adjusted z-score was inactive: -0.615. With GCAAGAACCCAAGCCCACATT against NME4 the median seed-adjusted z-score was inactive: -0.155. With CACUUUUUGUAAUACUUUUTT against MYOD1 the median seed-adjusted z-score was inactive: 0.309. In the case of GACCGGACCUUUUACCAAUTT against KIF1A, the median seed-adjusted z-score is reported as inactive: 0.318. For GGUAUCACCUAUACAGAAATT against FKBP11, the median seed-adjusted z-score was inactive: -0.085. With GCAAAUCGAGUGAUCGGAATT against UEVLD the median seed-adjusted z-score was inactive: -0.0682. For GGUCUUAACUUUAUACUUATT against LEFTY2, the median seed-adjusted z-score was inactive: -0.33. For GCUAAUCAGGAGCAACAGATT against NFAT5, the median seed-adjusted z-score was inactive: 0.106. With GAAUCAUGUUAAGAAGAUATT against ZNF654 the median seed-adjusted z-score was inactive: 0.199. With GCCGAGACCUUUUAGUUCATT against HNRNPUL2 the median seed-adjusted z-score was inactive: -0.0273. With GUGCAGCCCUCUUACGCAATT against EGLN3 the median seed-adjusted z-score was inactive: -0.0575. For ACAAAAGACAAGUUGAAGATT against TMPO, the median seed-adjusted z-score was inactive: -0.0406. With GAUAAACGGGUGGAAGUUATT against CPEB4 the median seed-adjusted z-score was inactive: -0.53. For AGAAGAUCCGAAAGAAAUATT against GABARAP, the median seed-adjusted z-score was inactive: 0.418. For CACCGUCUAUUGUCAUUCATT against ADIPOR1, the median seed-adjusted z-score was inactive: 0. With GCACCAUAGUGACACUGAATT against IFNAR2 the median seed-adjusted z-score was inactive: -0.219. For GUGUUUCACCUGUCUCGGATT against SLC9A5, the median seed-adjusted z-score was inactive: -0.545. For CAAUAGAUCCUCUAAAGGATT against F2RL1, the median seed-adjusted z-score was inactive: 0.138. In the case of CACUGUACAUUAUAGAACUTT against ZNF12, the median seed-adjusted z-score is reported as inactive: -0.144. In the case of GGCCUAAAAUUGAUGCAGUTT against MMP12, the median seed-adjusted z-score is reported as inactive: 0.0476. In the case of CUGCGGCUCUUUGACAUUATT against POP4, the median seed-adjusted z-score is reported as inactive: -0.144. With CGCUGAUUUUCGAGUGUAATT against EHMT2 the median seed-adjusted z-score was inactive: 0.295. For GGAGGACUGCCUACCUGUATT against OPTC, the median seed-adjusted z-score was inactive: 0.0953. With CCAAAUGACCUGUACCCUATT against YBX2 the median seed-adjusted z-score was inactive: 0.362. For GUGCUGCUCUGCAUACAAATT against CHI3L1, the median seed-adjusted z-score was inactive: 0.145. In the case of CACUGAACCCUGACAAUGATT against ARSH, the median seed-adjusted z-score is reported as inactive: -0.0414. For CGGCAUGCUUUGAUCCUCATT against CMKLR1, the median seed-adjusted z-score was inactive: -0.704. In the case of ACCAGUCCGUGAUCAAGAATT against TFAP2E, the median seed-adjusted z-score is reported as inactive: 0.243. With AGAAGAUUCUUGUAUUUAUTT against IL24 the median seed-adjusted z-score was inactive: -0.125. With GCUAGAUAAUGUCAAACAATT against TIMM44 the median seed-adjusted z-score was inactive: -0.569. In the case of GCAUGUACGACCAAUGUAATT against NR3C1, the median seed-adjusted z-score is reported as inactive: -0.47. For GCUACAGAGACAAUGCUUATT against PCMTD1, the median seed-adjusted z-score was inactive: 0.0312. For GCAACAUCCUCAUUGUAUUTT against MCHR2, the median seed-adjusted z-score was inactive: -0.658. In the case of GACCGAGAGUUGGUGGUUATT against ESRRG, the median seed-adjusted z-score is reported as inactive: -0.681. With GCUACAUCAUGGGCCGAUUTT against FOXS1 the median seed-adjusted z-score was inactive: 0. With AAACAAUGGUUUGUGCAAATT against UCRC the median seed-adjusted z-score was inactive: -0.93. With GAUCCAUGAUGACAUAGAATT against TFDP2 the median seed-adjusted z-score was inactive: 0.85. With GCUUGAUGCUAAACCCUCATT against PCGF1 the median seed-adjusted z-score was inactive: 0.508. In the case of GAAUGAUCCUGGGUAACAATT against RAB8B, the median seed-adjusted z-score is reported as inactive: -0.259. In the case of GCCUAUAACUUGAGGGUUATT against DCHS1, the median seed-adjusted z-score is reported as inactive: 0.565.
